Measurements taken from patent US20160046678A1 (ZYNGENIA, published 2016).
Results are given in words; binding and its absence hold for the method and conditions named. Some results given as binding are weak or reduced against the parent protein; the word gives no strength.

Protein sequences, listed by entry. Tags and fused reporters are not part of them. Residues count along the entry.
UniProt P05231, residues 30-212: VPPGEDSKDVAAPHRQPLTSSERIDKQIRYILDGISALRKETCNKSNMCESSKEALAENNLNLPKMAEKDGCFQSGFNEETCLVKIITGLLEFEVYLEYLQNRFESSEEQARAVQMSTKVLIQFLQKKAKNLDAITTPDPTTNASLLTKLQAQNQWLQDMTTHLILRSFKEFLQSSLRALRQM

B1: ILB498 (peptide)
peptide: DGSPGYRAYHSQFGQAGQGSATGGSGSTASSGSGSSFNEDCMWDPLLMDCAYSP
B2: ILB499 (peptide)
peptide: WPWFEQEHFWGQAGQGSFNEDCMWDPLLMDCAYSP
B3: ILB500 (peptide)
peptide: WCRPTDLKLVKGQAGQGSFNEDCMWDPLLMDCAYSP
B4: ILB501 (peptide)
peptide: DKSGGLVAIQGQAGQGSFNEDCMWDPLLMDCAYSP
B5: ILB502 (peptide)
peptide: DRWGWQKEPSGQAGQGSFNEDCMWDPLLMDCAYSP
B6: ILB503 (peptide)
peptide: LAWKQSWIDTGQAGQGSATGGSGSTASSGSGSSFNEDCMWDPLLMDCAYSP
B7: ILB504 (peptide)
peptide: VMLEQMPMMRGQAGQGSATGGSSFNEDCMWDPLLMDCAYSP
B8: ILB505 (peptide)
peptide: ATRMWPMSISGQAGQGSATGGSSFNEDCMWDPLLMDCAYSP
B9: ILB506 (peptide)
peptide: MYVMKWQNWTGQAGQGSFNEDCMWDPLLMDCAYSP
B10: ILB508 (peptide)
peptide: ISDVYQWHSYGQAGQGSFNEDCMWDPLLMDCAYSP
B11: ILB509 (peptide)
peptide: MVKLWEIYSWGQAGQGSFNEDCMWDPLLMDCAYSP
B12: ILB511 (peptide)
peptide: QWGWSMWQEVGQAGQGSFNEDCMWDPLLMDCAYSP
B13: ILB512 (peptide)
peptide: MWSAVFQPYQGQAGQGSATGGSSFNEDCMWDPLLMDCAYSPGGSFNEDCMWDPLLMDCAYSP
B14: ILB513 (peptide)
peptide: AMHNVMWRAMGQAGQGSFNEDCMWDPLLMDCAYSP
B15: ILB514 (peptide)
peptide: HEDKFIVWMWGQAGQGSATGGSSFNEDCMWDPLLMDCAYSP
B16: ILB516 (peptide)
peptide: QWWWTNSPWLGQAGQGSATGGSSFNEDCMWDPLLMDCAYSP
B17: ILB517 (peptide)
peptide: QHQTAFTEMVGQAGQGSFNEDCMWDPLLMDCAYSP
B18: ILB518 (peptide)
peptide: QTMWTRWMHDGQAGQGSFNEDCMWDPLLMDCAYSP
B19: ILB519 (peptide)
peptide: YAWHHHVLNTGQAGQGSFNEDCMWDPLLMDCAYSP
B20: ILB520 (peptide)
peptide: YCPFMPALCVGQAGQGSATGGSGSTASSGSGSSFNEDCMWDPLLMDCAYSP
B21: ILB522 (peptide)
peptide: RTYSTPYWGWGQAGQGSFNEDCMWDPLLMDCAYSP
B22: ILB523 (peptide)
peptide: EIFWWLLQWEGQAGQGSATGGSSFNEDCMWDPLLMDCAYSP
B23: ILB524 (peptide)
peptide: QIDFKYMMWTGQAGQGSATGGSSFNEDCMWDPLLMDCAYSP
B24: ILB525 (peptide)
peptide: QMQWLDDEFYGQAGQGSATGGSSFNEDCMWDPLLMDCAYSP
B25: ILB526 (peptide)
peptide: PVQQEWMQWYGQAGQGSFNEDCMWDPLLMDCAYSP
B26: ILB527 (peptide)
peptide: QAWKLMWFAWGQAGQGSATGGSSFNEDCMWDPLLMDCAYSP
B27: ILB528 (peptide)
peptide: MPSTQINQWVGQAGQGSFNEDCMWDPLLMDCAYSP
B28: ILB529 (peptide)
peptide: TEKDPAQDWWGQAGQGSATGGSSFNEDCMWDPLLMDCAYSP
B29: ILB531 (peptide)
peptide: EYTNTSWKGHGQAGQGSATGGSSFNEDCMWDPLLMDCAYSP
B30: ILB532 (peptide)
peptide: QMEVAHVVDLGQAGQGSATGGSSFNEDCMWDPLLMDCAYSP
B31: ILB533 (peptide)
peptide: IKPSSHWWWQGQAGQGSATGGSSFNEDCMWDPLLMDCAYSP
B32: ILB534 (peptide)
peptide: YEEQQVDEFGGQAGQGSATGGSGSTASSFNEDCMWDPLLMDCAYSP
B33: ILB535 (peptide)
peptide: AWWQGQRPYNGQAGQGSFNEDCMWDPLLMDCAYSP
B34: ILB536 (peptide)
peptide: PPLWMSQMVPQGSATGGSSFNEDCMWDPLLMDCAYSP
B35: ILB537 (peptide)
peptide: VEHLSHSYVLGQAGQGSATGGSSFNEDCMWDPLLMDCAYSP
B36: ILB538 (peptide)
peptide: DCSPDVHDCHGQAGQGSATGGSSFNEDCMWDPLLMDCAYSP
B37: ILB539 (peptide)
peptide: TYLQLWYFIQGQAGQGSFNEDCMWDPLLMDCAYSP
B38: ILB540 (peptide)
peptide: GRWWMVQWVEGQAGQGSFNEDCMWDPLLMDCAYSP
B39: ILB541 (peptide)
peptide: VMEGHQFAQFGQAGQGSFNEDCMWDPLLMDCAYSP
B40: ILB542 (peptide)
peptide: WWSPSYAWVMGQAGQGSFNEDCMWDPLLMDCAYSP
B41: ILB543 (peptide)
peptide: MEMVSAAWQEGQAGQGSFNEDCMWDPLLMDCAYSP
B42: ILB544 (peptide)
peptide: YWWTIDYWPYGQAGQGSATGGSSFNEDCMWDPLLMDCAYSP
B43: ILB545 (peptide)
peptide: YPMYYYQDISGQAGQGSFNEDCMWDPLLMDCAYSP
B44: ILB546 (peptide)
peptide: IMWAGPIFPNGQAGQGSFNEDCMWDPLLMDCAYSP
B45: ILB547 (peptide)
peptide: IMGMYEGFRTGQAGQGSFNEDCMWDPLLMDCAYSP
B46: ILB548 (peptide)
peptide: IERAYHSTRWGQAGQGSATGGSSFNEDCMWDPLLMDCAYSP
B47: ILB549 (peptide)
peptide: ETELKKPAMQGQAGQGSFNEDCMWDPLLMDCAYSP
B48: ILB550 (peptide)
peptide: QDWHYPWVYQGQAGQGSFNEDCMWDPLLMDCAYSP
B49: ILB551 (peptide)
peptide: PLQKWEHIVNGQAGQGSFNEDCMWDPLLMDCAYSP
B50: ILB552 (peptide)
peptide: TDSWCHTLYWALQHCVAQE
B51: ILB553 (peptide)
peptide: WQNPWPVRFWGQAGQGSATGGSGSTASSFNEDCMWDPLLMDCAYSP
B52: ILB554 (peptide)
peptide: APGVAMWMFIGQAGQGSFNEDCMWDPLLMDCAYSP
B53: ILB555 (peptide)
peptide: QSNGAHAWVWGQAGQGSATGGSGSTASSFNEDCMWDPLLMDCAYSP
B54: ILB556 (peptide)
peptide: PDSSCHTLYWQLHHCARRE
B55: ILB557 (peptide)
peptide: KWNQQWTIARGQAGQGSFNEDCMWDPLLMDCAYSP
B56: ILB558 (peptide)
peptide: ECSCAKSRYANGQAGQGSFNEDCMWDPLLMDCAYSP
B57: ILB559 (peptide)
peptide: SCQFLEEYKDCRGQAGQGSATGGSSFNEDCMWDPLLMDCAYSP
B58: ILB560 (peptide)
peptide: VPSLIYHTYYGQAGQGSATGGSSFNEDCMWDPLLMDCAYSP

molecular target: IL6 (UniProt P05231); assay: MRD identification, Example 48

Q: B1 was tested. Which binding did it give?
A: binds

Q: Which binding does the source give for B2 here?
A: binds

Q: For B3, which binding is on record?
A: binds

Q: With B4 as the binder, how does the binding read?
A: binds

Q: B5 was tested. Which binding did it give?
A: binds

Q: For B6, which binding is on record?
A: binds

Q: For B7, which binding is on record?
A: binds

Q: Which binding does the source give for B8 here?
A: binds

Q: Which binding does the source give for B9 here?
A: binds

Q: How did the binding turn out when B10 was run?
A: binds

Q: With B11 as the binder, how does the binding read?
A: binds

Q: How did the binding turn out when B12 was run?
A: binds

Q: With B13 as the binder, how does the binding read?
A: binds

Q: Which binding does the source give for B14 here?
A: binds

Q: For B15, which binding is on record?
A: binds

Q: For B16, which binding is on record?
A: binds

Q: With B17 as the binder, how does the binding read?
A: binds

Q: Which binding does the source give for B18 here?
A: binds

Q: With B19 as the binder, how does the binding read?
A: binds

Q: For B20, which binding is on record?
A: binds

Q: For B21, which binding is on record?
A: binds

Q: Which binding does the source give for B22 here?
A: binds

Q: For B23, which binding is on record?
A: binds

Q: Which binding does the source give for B24 here?
A: binds

Q: B25 was tested. Which binding did it give?
A: binds

Q: Which binding does the source give for B26 here?
A: binds

Q: How did the binding turn out when B27 was run?
A: binds

Q: With B28 as the binder, how does the binding read?
A: binds

Q: With B29 as the binder, how does the binding read?
A: binds

Q: For B30, which binding is on record?
A: binds

Q: How did the binding turn out when B31 was run?
A: binds

Q: For B32, which binding is on record?
A: binds

Q: For B33, which binding is on record?
A: binds

Q: How did the binding turn out when B34 was run?
A: binds

Q: For B35, which binding is on record?
A: binds

Q: With B36 as the binder, how does the binding read?
A: binds

Q: For B37, which binding is on record?
A: binds

Q: For B38, which binding is on record?
A: binds

Q: With B39 as the binder, how does the binding read?
A: binds

Q: For B40, which binding is on record?
A: binds

Q: How did the binding turn out when B41 was run?
A: binds

Q: How did the binding turn out when B42 was run?
A: binds

Q: How did the binding turn out when B43 was run?
A: binds

Q: Which binding does the source give for B44 here?
A: binds

Q: How did the binding turn out when B45 was run?
A: binds

Q: B46 was tested. Which binding did it give?
A: binds

Q: For B47, which binding is on record?
A: binds

Q: B48 was tested. Which binding did it give?
A: binds

Q: With B49 as the binder, how does the binding read?
A: binds

Q: Which binding does the source give for B50 here?
A: binds

Q: For B51, which binding is on record?
A: binds

Q: Which binding does the source give for B52 here?
A: binds

Q: Which binding does the source give for B53 here?
A: binds

Q: How did the binding turn out when B54 was run?
A: binds

Q: With B55 as the binder, how does the binding read?
A: binds

Q: B56 was tested. Which binding did it give?
A: binds

Q: With B57 as the binder, how does the binding read?
A: binds

Q: B58 was tested. Which binding did it give?
A: binds
